Test results: paper PMC6744409
Positions count from the first letter of the chain named. In names and notes the source's numbering stands. Results are given in words; binding and its absence hold for the method and conditions named. For some assays here: In cells and extracts the contact can be indirect. Some binding calls cover weakened binding; strength is not graded here. For some assays here: Sequences can lack the tags named with a protein. Blank lines part the entries; values can stand above or below the binder they belong to.

Assays:
[1] = target: T1, LptF from Shigella flexneri (subunit of sfLptB2FG / sfLptB2FGC) (Shigella flexneri) (UniProt P0AFA1); experiment: cryo-EM structure; sfLptB2FGC, LPS-bound, nucleotide-free, in LMNG, ~1 mg/ml; 3.1 Å; both purified
T1 sequence: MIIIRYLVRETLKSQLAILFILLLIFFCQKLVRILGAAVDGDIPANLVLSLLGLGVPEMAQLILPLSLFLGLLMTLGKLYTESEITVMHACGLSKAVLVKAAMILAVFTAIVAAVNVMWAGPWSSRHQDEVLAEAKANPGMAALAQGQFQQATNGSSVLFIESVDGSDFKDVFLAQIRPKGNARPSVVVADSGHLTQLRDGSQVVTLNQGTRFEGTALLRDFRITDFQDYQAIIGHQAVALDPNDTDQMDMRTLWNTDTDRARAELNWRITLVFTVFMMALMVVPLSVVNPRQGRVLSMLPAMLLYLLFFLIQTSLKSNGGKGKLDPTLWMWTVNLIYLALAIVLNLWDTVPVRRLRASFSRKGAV

[2] = target: T2, E. coli LptB with His x8 tag at the C terminus (from pTRC99a-E. coli LptBF138G144C-Kan) (E. coli) (UniProt P0A9V1); experiment: pull-down; membrane fraction of NR1113 cells with pTRC99a-Kan E. coli LptB(His8)F(Flag)G(Myc)C solubilised in 1% DDM, loaded on Ni2+-NTA, washed with 30 mM imidazole, eluted with 500 mM imidazole; eluate blotted with anti-Flag or anti-Myc; the paper reads the blot as expression level
T2 sequence: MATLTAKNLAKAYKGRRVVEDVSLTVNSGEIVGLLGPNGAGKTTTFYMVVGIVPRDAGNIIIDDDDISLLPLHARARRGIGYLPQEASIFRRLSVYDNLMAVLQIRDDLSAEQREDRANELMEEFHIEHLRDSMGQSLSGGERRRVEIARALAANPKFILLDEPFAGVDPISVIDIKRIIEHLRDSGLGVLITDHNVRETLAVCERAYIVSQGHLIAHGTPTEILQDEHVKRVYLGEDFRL

[3] = target: T3, LptB from Shigella flexneri (subunit of sfLptB2FG / sfLptB2FGC) (Shigella flexneri) (UniProt P0A9V4); experiment: cryo-EM structure; purified sfLptB2FGC incubated with 5 mM AMP-PNP and 2 mM MgCl2 for 1 h at room temperature, in LMNG; both purified
T3 sequence: T2 sequence

[4] = target: T3, LptB from Shigella flexneri (subunit of sfLptB2FG / sfLptB2FGC) (Shigella flexneri); experiment: cryo-EM structure; sfLptB2FG, LPS-bound (LPS co-purified from E. coli), nucleotide-free, in LMNG, ~1 mg/ml; 3.7 Å overall; both purified
[5] = target: T3, LptB from Shigella flexneri (subunit of sfLptB2FG / sfLptB2FGC) (Shigella flexneri); experiment: cryo-EM structure; sfLptB2FGC, LPS-bound, nucleotide-free, in LMNG, ~1 mg/ml; 3.1 Å; both purified
[6] = target: T4, LptB from Shigella flexneri (subunit of sfLptB2FG / sfLptB2FGC) (Shigella flexneri), P0A9V4; experiment: cryo-EM structure; sfLptB2FG, LPS-bound (LPS co-purified from E. coli), nucleotide-free, in LMNG, ~1 mg/ml; 3.7 Å overall; both purified; conditions: remark: other sources report otherwise
T4 chain: T2 sequence

[7] = target: T4, LptB from Shigella flexneri (subunit of …); experiment: cryo-EM structure; sfLptB2FGC, LPS-bound, nucleotide-free, in LMNG, ~1 mg/ml; 3.1 Å; both purified; conditions: remark: other sources report otherwise
[8] = target: T4, LptB from Shigella flexneri (subunit of …); experiment: cryo-EM structure; purified sfLptB2FGC incubated with 5 mM AMP-PNP and 2 mM MgCl2 for 1 h at room temperature, in LMNG; both purified; conditions: remark: other sources report otherwise

B2: E. coli LptG with a c-Myc tag at 144 (LptG-144-Myc) (protein, UniProt P0ADC6 1-360)
chain: MQPFGVLDRYIGKTIFTTIMMTLFMLVSLSGIIKFVDQLKKAGQGSYDALGAGMYTLLSVPKDVQIFFPMAALLGALLGLGMLAQRSELVVMQASGFTRMQVALSVMKTAIPLVLLTMAIGEWVAPQGEQMARNYRAQAMYGGSLLSTQQGLWAKDGNNFVYIERVKGDEELGGISIYAFNENRRLQSVRYAATAKFDPEHKVWRLSQVDESDLTNPKQITGSQTVSGTWKTNLTPDKLGVVALDPDALSISGLHNYVKYLKSSGQDAGRYQLNMWSKIFQPLSVAVMMLMALSFIFGPLRSVPMGVRVVTGISFGFVFYVLDQIFGPLTLVYGIPPIIGALLPSASFFLISLWLLMRKS
- binding [2]: binds

B3: E. coli LptG-144-Myc K62E (protein, UniProt P0ADC6 1-360)
chain: B2 chain with K62E
- binding [2]: binds

B5: E. coli LptF-138-Flag P139D (protein, UniProt P0AF98 1-366)
chain: T1 sequence with P139D
- binding [2]: binds

The next lines start with the values.

- binding [1]: binds
B1: LptC from Shigella flexneri (subunit of sfLptB2FGC) (protein, UniProt P0ADW2 1-191)
chain: MSKARRWVIIVLSLAVLVMIGINMAEKDDTAQVVVNNNDPTYKSEHTDTLVYNPEGALSYRLIAQHVEYYSDQAVSWFTQPVLTTFDKDKIPTWSVKADKAKLTNDRMLYLYGHVEVNALVPDSQLRRITTDNAQINLVTQDVTSEDLVTLYGTTFNSSGLKMRGNLRSKNAELIEKVRTSYEIQNKQTQP

- binding [3]: binds
- binding [4]: binds
- binding [5]: binds
B4: LptF from Shigella flexneri (subunit of sfLptB2FG / sfLptB2FGC) (protein, UniProt P0AFA1 1-366)
chain: T1 sequence

- binding [2]: binds
B6: E. coli LptF with a Flag tag at residue 138 (LptF-138-Flag) (protein, UniProt P0AF98 1-366)
chain: T1 sequence

- binding [6]: binds
- binding [7]: binds
- binding [8]: binds
B7: LptB from Shigella flexneri (subunit of sfLptB2FG / sfLptB2FGC), P0A9V4 1-241 (protein)
chain: T2 sequence
